The values below come from US20110177615A1.

The chains behind the UniProt entries cited, without tags or fusion partners. Residues count along the entry.
UniProt P01012, residues 2-386: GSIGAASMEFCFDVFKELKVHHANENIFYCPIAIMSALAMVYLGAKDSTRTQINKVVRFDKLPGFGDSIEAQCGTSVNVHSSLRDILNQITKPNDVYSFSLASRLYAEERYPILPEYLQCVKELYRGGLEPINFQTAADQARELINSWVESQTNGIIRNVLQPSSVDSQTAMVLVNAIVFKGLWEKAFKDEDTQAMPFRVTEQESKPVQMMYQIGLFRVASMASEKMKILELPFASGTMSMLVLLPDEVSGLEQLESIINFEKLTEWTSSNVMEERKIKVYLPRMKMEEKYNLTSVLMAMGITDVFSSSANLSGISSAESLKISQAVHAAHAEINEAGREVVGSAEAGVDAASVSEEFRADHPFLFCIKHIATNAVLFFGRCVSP

In the experiment the target is ovalbumin (UniProt P01012). Kind of experiment: ELISA, ovalbumin coated on plate, dilutions of antibody preparation, absorbance at 414 nm.

No constants are given. Whether binding was seen depends on the method and setting. Some binding calls cover weakened binding; strength is not graded here. Sequences can lack the tags named with a protein.

B1: recombinant ovalbumin fusion antibody with fusion partner comprising … (SEQ ID 2) (scFv)
scFv: DYKDIVMTQSPASLAVSLGQRATISCRASQSVSTSSYSYMHWYQQKPGQPPKLLIKYASNLESGVPARFSGSGSGTDFTLNIHPVVEEDTATYYCQHSWEIPYTFGGGTKLEIKRGGGGSGGGGSEVKLMESGGGLVKPGGSLKLSCAASGFTFSSYAMSWVRQTPEKRLEWVATIRSGGSYTYYPDSVKGRFTISRDNAKNTLYLQMSSLRSEDTAMYYCARHRMITTAGDAMDYWGQGTSVTVSAASGAGGSGGAPASNRCSQGSCWNLQHHHHHH
On to B1, for which the binding entry was “binds”.
